Changes are numbered by the printed parent chain. No constants are given. Whether binding was seen depends on the method and setting. Some results given as binding are weak or reduced against the parent protein; the word gives no strength. For some of these results: Where a sequence is shown, tags or fusion partners need not be part of it. One block for each binder: values may come before it.
Tests used:
[1] = biological target: Human VSIG4-L-His (human) (UniProt Q9Y279); test: BLI (Octet)
[2] = biological target: T1, Cynomolgus Monkey VSIG4-L-His (cynomolgus monkey); test: BLI (Octet)
T1 sequence: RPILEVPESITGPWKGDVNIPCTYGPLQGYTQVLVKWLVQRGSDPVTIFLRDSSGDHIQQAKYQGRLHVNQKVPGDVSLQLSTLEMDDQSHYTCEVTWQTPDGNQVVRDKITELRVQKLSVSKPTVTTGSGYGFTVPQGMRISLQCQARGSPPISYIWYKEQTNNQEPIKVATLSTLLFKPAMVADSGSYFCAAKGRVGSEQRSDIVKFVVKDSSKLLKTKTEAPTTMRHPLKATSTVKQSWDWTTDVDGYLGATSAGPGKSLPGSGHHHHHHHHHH

Sequences of proteins named here, by UniProt entry; tags and fusion partners are left off. A change or cut given only in a name is not applied to a line headed by its entry.
UniProt Q9Y279: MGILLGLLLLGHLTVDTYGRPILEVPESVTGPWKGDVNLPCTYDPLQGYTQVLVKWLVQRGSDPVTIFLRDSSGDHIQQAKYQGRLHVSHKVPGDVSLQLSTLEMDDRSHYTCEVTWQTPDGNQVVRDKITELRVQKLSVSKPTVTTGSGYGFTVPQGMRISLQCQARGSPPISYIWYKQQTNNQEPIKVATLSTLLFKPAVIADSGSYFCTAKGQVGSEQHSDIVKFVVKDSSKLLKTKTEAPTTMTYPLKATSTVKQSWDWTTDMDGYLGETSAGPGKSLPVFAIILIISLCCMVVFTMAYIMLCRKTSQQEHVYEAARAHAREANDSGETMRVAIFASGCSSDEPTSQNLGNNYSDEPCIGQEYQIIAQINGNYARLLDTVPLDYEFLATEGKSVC

- binding [1]: binds
- binding [2]: binds
B1: 1C6.D6 murine hybridoma antibody (antibody, V domains shown)
VH: QVQLQQPGAEMVRPGTSVKLSCKASGYTFTSYWMHWVKQRPGQGLEWIGKIDPSHNKTHYIQKFEDKATLTVDKSSSTAYMHLNSLTSEDSAVYYCVTWDGDFLYWGQGTLVTVSA
VL: NIVLTQSPASLTVSLGQRATISCRASESVDSYGNSFMHWYQQKPGQPPKLLIYITSNLQSGVPARFSGGGSRTDFTLTIDPVEADDAATYYCQQNNEDPWTFGGGTKLEIK

- binding [1]: binds
- binding [2]: binds
B2: 16F6.E1 murine hybridoma antibody (antibody, V domains shown)
VH: QVQLQQPGAEMVRPGASLKLSCKASGYTFTSYWMHWVKQRPGQGLEWIGKIDPSKNTTHYNQNFRDKATLTVDRSSSTAYMQLNSLTSEDSAVYFCVTWDGDFTYWGQGTLVTISA
VL: B1 VL with A9P, T12A, I54L, T55A, Q59E, G69S, Y91F, Q93H
